# Laboratory results published in the supplement of paper PMC3334620.
# The full ranking holds about 33,000 sequences; the median of “E-score (-0.5 to 0.5)” is about -0.015, and the highest 2% start at about 0.3. The list shows a part of the results.
# Target: T1, Abf1 (UniProt P14164)
# T1 sequence: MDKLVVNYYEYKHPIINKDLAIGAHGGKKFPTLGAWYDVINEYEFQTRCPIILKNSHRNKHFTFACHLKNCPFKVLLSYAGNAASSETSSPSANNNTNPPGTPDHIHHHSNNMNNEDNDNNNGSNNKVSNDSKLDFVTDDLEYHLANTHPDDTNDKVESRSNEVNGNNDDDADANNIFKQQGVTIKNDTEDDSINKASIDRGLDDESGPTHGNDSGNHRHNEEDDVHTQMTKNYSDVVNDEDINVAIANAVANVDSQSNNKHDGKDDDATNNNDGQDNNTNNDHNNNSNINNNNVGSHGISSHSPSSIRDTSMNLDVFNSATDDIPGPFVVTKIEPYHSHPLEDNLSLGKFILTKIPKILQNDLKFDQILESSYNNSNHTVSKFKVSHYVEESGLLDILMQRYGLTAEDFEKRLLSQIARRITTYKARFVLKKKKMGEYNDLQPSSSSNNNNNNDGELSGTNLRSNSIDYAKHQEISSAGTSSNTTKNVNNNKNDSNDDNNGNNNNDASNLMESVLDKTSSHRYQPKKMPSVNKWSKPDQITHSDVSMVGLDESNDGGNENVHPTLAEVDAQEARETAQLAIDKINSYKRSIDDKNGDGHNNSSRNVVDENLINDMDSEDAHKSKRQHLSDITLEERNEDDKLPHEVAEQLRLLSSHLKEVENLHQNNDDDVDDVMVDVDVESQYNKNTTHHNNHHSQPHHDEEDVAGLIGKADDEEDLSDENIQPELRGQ
# Assay: PBM E-score (8-mer binding enrichment) (E-score (-0.5 to 0.5)); higher = stronger / more preferred TF binding
# Conditions: protein concentration: 200 nM; construct: GST-full length
# In short: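 For each ungapped eight-base word taken together with its reverse complement, the Universal PBM Analysis Suite assigned an E-score. Binding data came from GST-tagged yeast transcription factors, applied at about 100-200 nM, on universal all-10-mer Agilent arrays made double-stranded by primer extension. Fluorescent anti-GST marked bound protein, and scans were normalised with masliner.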
row,Sequence,PBM E-score
1,AATGCCGA,-0.0292
2,CACCCGAA,0.0712
3,GTCGTCGA,0.215
4,AGCGCCGC,-0.233
5,CCGAGCAC,-0.0613
6,AGAAGGCA,-0.218
7,GAAGTCCA,-0.124
8,GCATTTAA,0.122
9,CCATCGCG,0.146
10,CACATCAG,-0.142
11,GGGTAGTA,-0.143
12,ATTAGTCG,0.122
13,AGTACGCC,0.0999
14,ACGGTCTC,0.125
15,CCTAACAC,0.0708
16,ACTCCCTA,-0.0578
17,CGGCTTAG,-0.213
18,AAGGACAA,0.0178
19,AATTTGTG,0.0205
20,AAACTTCT,0.211
21,GGCAAGCC,-0.2
22,GCGTATTA,-0.114
23,GTAGCGCA,-0.0713
24,TAGCGCAA,0.0533
25,CTGGGACA,0.0673

row,Sequence,PBM E-score
1,AACGCACT,-0.0121
2,CCGGCTAA,-0.0565
3,AATTACAA,0.139
4,AACATAAA,0.0752
5,GGGGACGA,0.135
6,AGATTTAT,0.134
7,ACAACACG,-0.043
8,CCATACGG,0.281
9,TTAGGCAA,-0.144
10,ATCACTCA,0.369
11,GGGAGCGA,-0.0269
12,GATCTAAA,0.0194
13,ACTAGAGG,-0.3
14,GATACTCA,0.156
15,GACTCGCC,-0.124
16,CCGAGTGA,0.201
17,GCTTAGCC,-0.218
18,CATCTGGG,-0.0859
19,GGGATGCA,-0.183
20,ACAATCTA,0.0679
21,ATCTACCG,0.0808
22,TGACTGAA,0.00356
23,AACTAGAG,-0.159
24,AGACACGA,0.083
25,CGCACACC,-0.197

# Individual results from above:
# For PBM E-score, CCGAGCAC has -0.0613
# For PBM E-score, CGGCTTAG has -0.213
# For PBM E-score, CCGGCTAA has -0.0565
# For PBM E-score, AGCGCCGC has -0.233
# For PBM E-score, ACGGTCTC has 0.125
# For PBM E-score, ACTAGAGG has -0.3
# For PBM E-score, GAAGTCCA has -0.124

# Later entries:

row,Sequence,PBM E-score
1,ACGGCTTA,0.111
2,AGGGGAGG,-0.133
3,ATCCACAT,0.218
4,AAACAGTG,0.0856
5,CGCGGTGC,0.0204
6,AGCGTCCA,-0.0104
7,AATATTTG,0.13
8,CTTCCTGA,0.0112
9,CAACTTCG,-0.025
10,ACCCGACA,-0.026
11,CCTATATA,0.0431
12,CGATTGAC,0.192
13,ATACGGGA,0.253
14,AGACTCCG,-0.134
15,CAAGCTAA,-0.17
16,ACGCCAGA,-0.081
17,CGGTTGAC,0.0615
18,AGATTCTG,-0.0764
19,CATATCAG,0.0515
20,GATTGCGA,0.011
21,CTGCTAGA,0.0103
22,CAGACCCA,-0.195
23,CGTAAAGA,0.0591
24,CCCGGCCG,-0.11
25,GCGTCCTA,-0.0099

row,Sequence,PBM E-score
1,AATACTGG,-0.0655
2,CCCAGCAC,-0.127
3,GGGTACCC,-0.0568
4,CAAAGCCA,-0.0956
5,CATACATC,0.184
6,CCCGCTAA,-0.211
7,GAGGAAAC,-0.115
8,CAGTGGGG,-0.317
9,ACCAGGCC,-0.00672
10,TAAATCGA,0.14
11,ATCGAGTC,0.0688
12,CTGCTGTC,-0.149
13,AACAGATA,0.0193
14,ACCTATAA,-0.0738
15,GACTTACA,-0.0928
16,CACTAGTA,0.125
17,GCGGTGCC,-0.156
18,GATGCCTA,0.0188
19,AGTTTCGC,-0.0187
20,ACCTTAAC,0.136
21,GGTGTATA,-0.174
22,GATGCCAC,0.049
23,ACCAGCCC,-0.296
24,ATTAAGAG,-0.0703
25,AACCGTCC,-0.0986

row,Sequence,PBM E-score
1,CCGAAGCA,-0.0818
2,CAACATTG,-0.0544
3,AGCGCGGG,-0.0308
4,ATCCGACA,0.00862
5,CACCACAC,-0.143
6,CGTGACAG,0.319
7,AGACGATG,0.209
8,GACTTTCC,0.0853
9,CATGTAGA,0.0119
10,GCTGGATA,-0.0412
11,ATCTGCAC,-0.055
12,ACCGCAGC,-0.15
13,GTTTAAGA,-0.0159
14,ACGCAGAA,-0.00375
15,ACAATTGA,0.0692
16,CCCGCTCG,-0.0943
17,CTCTCAGC,-0.234
18,AGTTTGAA,0.13
19,CCACGGGC,-0.0202
20,ATACCAGG,0.0348
21,AGATTAAC,0.0782
22,CATCGATG,-0.0454
23,AAGCCAAG,-0.249
24,ATAGTACG,0.0658
25,ATTGGACA,-0.00916

row,Sequence,PBM E-score
1,CAATGATC,0.31
2,GGGCTACC,-0.186
3,CTGCGACA,0.0333
4,CACACGGA,0.0992
5,CCTTACCG,-0.0769
6,ATATTGTA,0.132
7,AGCATGCA,-0.00312
8,AGACACCT,-0.0571
9,CACTAATA,0.255
10,CTCAAGAG,-0.285
11,AGCTCTAA,-0.231
12,GTATTGTA,0.164
13,TAGGATGA,0.203
14,ATAGTTAG,0.0345
15,ATGTAGAC,-0.0712
16,CACCTCCA,0.0444
17,CACGTGCG,0.075
18,ATTAGCCG,0.0297
19,CTTGTTGC,-0.0759
20,TAACAACA,0.0694
21,ACCATAGC,-0.225
22,AAAAGCAC,0.0108
23,ACACGTTA,-0.0514
24,AAAAATTC,0.147
25,CGTATGAC,0.334

row,Sequence,PBM E-score
1,CATGGGTA,-0.0994
2,ATAATCAG,0.0922
3,GAGGACCC,-0.0707
4,GATGAAGC,-0.0901
5,GGCTCGAA,-0.136
6,TCTACCCA,0.0157
7,GTCTGGTA,-0.0271
8,AAATTTGC,-0.0527
9,AAATACTA,0.0544
10,ATTGACAA,0.0759
11,TATACCGA,0.118
12,CCAGCAAA,0.0385
13,AAGCCTGC,-0.165
14,CACGTAAG,-0.0131
15,CCGCTGTC,-0.034
16,ACATTGTC,0.242
17,AAACCCAC,-0.0255
18,CGAGTCCC,-0.197
19,CAATAGGG,-0.138
20,ACCTAGCG,0.0668
21,AGGGGCGG,-0.284
22,ATAGCTGG,-0.0686
